# Where a name gives a salt, the structure may show the parent alone. The list shows a part of the results. Single values are uncertain here, since repeats match poorly.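 Cells: ReNCell VM human fetal ventral-midbrain neural progenitors, differentiated mitogen-free. Blinded raters compared doublecortin-stained (early neurons) or tyrosine hydroxylase-stained (dopaminergic neurons) images with untreated wells, where 0 means no change. After repeats and both raters were averaged, compounds scoring 2 or above became hits for retesting.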
# Tests used:
# ReNCell VM [1] = assay: neuronal differentiation score (DCX+ cell fraction vs untreated, manual image score) (score (-3 to 3)); higher = more neuronal differentiation; conditions: 2 uM, 2 weeks
# ReNCell VM [2] = assay: dopaminergic neuron differentiation score (TH+ cell fraction vs untreated, manual image score) (score (0 to 3)); higher = more TH+ dopaminergic neuron differentiation; conditions: 2 uM, 4 weeks, BDNF 10 ng/ml + GDNF 10 ng/ml
compound,measurement,setting,value
NCCc1ccc(O)cc1,neuronal differentiation score,ReNCell VM [1]; library: Spectrum,inactive: 0
same,dopaminergic neuron differentiation score,ReNCell VM [2]; library: Spectrum,inactive: 0
CC(C)c1ccc2c(c1O)CC[C@H]1C3=C(CC[C@]21C)C(=O)OC3,neuronal differentiation score,ReNCell VM [1]; library: Spectrum,inactive: 0
same,dopaminergic neuron differentiation score,ReNCell VM [2]; library: Spectrum,inactive: 0
Cc1ccc2c(c1)C1(CCN(CCc3nc(-c4ccccc4)oc3C)CC1)OC(=O)N2,neuronal differentiation score,ReNCell VM [1]; library: Tocriscreen,inactive: 0
same,dopaminergic neuron differentiation score,ReNCell VM [2]; library: Tocriscreen,inactive: 0
NNCc1ccccc1,neuronal differentiation score,ReNCell VM [1]; library: Spectrum,inactive: 0
same,dopaminergic neuron differentiation score,ReNCell VM [2]; library: Spectrum,inactive: 0
CC(C)Oc1cccnc1N(C)C1CCN(Cc2ccc(I)cc2)CC1 [RBI 257 maleate salt],neuronal differentiation score,ReNCell VM [1]; library: LOPAC,inactive: 0
same,dopaminergic neuron differentiation score,ReNCell VM [2]; library: LOPAC,inactive: 0
O=C(CN1CCCCC1c1cccnc1)c1ccccc1 (centres undefined),neuronal differentiation score,ReNCell VM [1]; library: Natural,inactive: 0
same,dopaminergic neuron differentiation score,ReNCell VM [2]; library: Natural,inactive: 0
CCN1C[C@]2(COC)CC[C@H](O)[C@@]34C5C[C@@H]6[C@@H](OC)C[C@](O)(C(CC23)C14)C5[C@H]6OC(C)=O (some centres undefined) [Condelphine],neuronal differentiation score,ReNCell VM [1]; library: Phytochemical,inactive: 0
same,dopaminergic neuron differentiation score,ReNCell VM [2]; library: Phytochemical,inactive: 0
COc1ccc2c3c([nH]c2c1)C(C)=NCC3 [Harmaline hydrochloride dihydrate],neuronal differentiation score,ReNCell VM [1]; library: Phytochemical,inactive: 0
same,dopaminergic neuron differentiation score,ReNCell VM [2]; library: Phytochemical,inactive: 0
CCCN(CCC)[C@@H]1CCc2c(OC)cccc2[C@@H]1C [(+)-UH 232 maleate],neuronal differentiation score,ReNCell VM [1]; library: Tocriscreen,inactive: 0
same,dopaminergic neuron differentiation score,ReNCell VM [2]; library: Tocriscreen,inactive: 0
N#C[C@H](O[C@@H]1O[C@H](CO[C@@H]2O[C@H](CO)[C@@H](O)[C@H](O)[C@H]2O)[C@@H](O)[C@H](O)[C@H]1O)c1ccccc1,neuronal differentiation score,ReNCell VM [1]; library: Spectrum,inactive: 0
same,dopaminergic neuron differentiation score,ReNCell VM [2]; library: Spectrum,inactive: 0
O=C1CCC[C@@H]2[C@H]3C[C@@H](CN12)[C@@H]1CCCCN1C3.[O-][Cl+3]([O-])([O-])O,neuronal differentiation score,ReNCell VM [1]; library: Spectrum,inactive: 0
same,dopaminergic neuron differentiation score,ReNCell VM [2]; library: Spectrum,inactive: 0
S=C=NCc1ccccc1,neuronal differentiation score,ReNCell VM [1]; library: Spectrum,inactive: 0
same,dopaminergic neuron differentiation score,ReNCell VM [2]; library: Spectrum,inactive: 0
CC(C(=O)OC1CC2CCC(C1)N2C)c1ccc(Br)cc1 (centres undefined) [PG-9 maleate],neuronal differentiation score,ReNCell VM [1]; library: Tocriscreen,inactive: 0
same,dopaminergic neuron differentiation score,ReNCell VM [2]; library: Tocriscreen,inactive: 0
COc1cc2c(cc1OC)-c1c(oc3c4c(ccc3c1=O)OC(C(C)C)C4)CO2 (centres undefined),neuronal differentiation score,ReNCell VM [1]; library: Spectrum,inactive: 0
same,dopaminergic neuron differentiation score,ReNCell VM [2]; library: Spectrum,inactive: 0
C[C@H](N)Cn1ccc2cc(F)c(Cl)cc21 [Ro 60-0175 fumarate],neuronal differentiation score,ReNCell VM [1]; library: Tocriscreen,inactive: 0
same,dopaminergic neuron differentiation score,ReNCell VM [2]; library: Tocriscreen,inactive: 0
CCC1(c2ccc(N)cc2)CCC(=O)NC1=O (centres undefined),neuronal differentiation score,ReNCell VM [1]; library: Spectrum,inactive: 0
same,dopaminergic neuron differentiation score,ReNCell VM [2]; library: Spectrum,inactive: 0
"C[C@]12CCC(=O)C[C@@H]1CC[C@@H]1[C@@H]2CC[C@]2(C)C(=O)CC[C@@H]12 [5alpha-ANDROSTAN-3,17-DIONE]",neuronal differentiation score,ReNCell VM [1]; library: Spectrum,inactive: 0
same,dopaminergic neuron differentiation score,ReNCell VM [2]; library: Spectrum,inactive: 0
CC(=O)O[C@H]1C[C@@H]2CC[C@@H]3[C@H](CC[C@@]4(C)[C@H]3C[C@H]([N+]3(C)CCCCC3)[C@@H]4OC(C)=O)[C@@]2(C)C[C@@H]1[N+]1(C)CCCCC1,neuronal differentiation score,ReNCell VM [1]; library: Spectrum,inactive: 0
same,dopaminergic neuron differentiation score,ReNCell VM [2]; library: Spectrum,inactive: 0
COc1ccc(C[C@H]2NC[C@H](O)[C@H]2OC(C)=O)cc1,neuronal differentiation score,ReNCell VM [1]; library: Spectrum,inactive: 0
same,dopaminergic neuron differentiation score,ReNCell VM [2]; library: Spectrum,inactive: 0
COc1ccc2[nH]cc(CCN)c2c1 [O-Methylserotonin hydrochloride],neuronal differentiation score,ReNCell VM [1]; library: LOPAC,inactive: 0
same,dopaminergic neuron differentiation score,ReNCell VM [2]; library: LOPAC,inactive: 0
CCC(=O)O[C@H]1CC[C@H]2[C@@H]3CCC4=CC(=O)CC[C@]4(C)[C@H]3CC[C@]12C,neuronal differentiation score,ReNCell VM [1]; library: Spectrum,inactive: 0
same,dopaminergic neuron differentiation score,ReNCell VM [2]; library: Spectrum,inactive: 0
CN[C@@H]1[C@@H](O)[C@@H](O[C@@H]2[C@@H](O)[C@H](O[C@H]3O[C@H](CN)CC[C@H]3N)[C@@H](N)C[C@H]2N)OC[C@]1(C)O.CN[C@@H]1[C@@H](O)[C@@H](O[C@@H]2[C@@H](O)[C@H](O[C@H]3O[C@H]([C@@H](C)N)CC[C@H]3N)[C@@H](N)C[C@H]2N)OC[C@]1(C)O.CN[C@@H]1[C@@H](O)[C@@H](O[C@@H]2[C@@H](O)[C@H](O[C@H]3O[C@H]([C@@H](C)NC)CC[C@H]3N)[C@@H](N)C[C@H]2N)OC[C@]1(C)O,neuronal differentiation score,ReNCell VM [1]; library: Spectrum,inactive: 0
same,dopaminergic neuron differentiation score,ReNCell VM [2]; library: Spectrum,inactive: 0
CN(C)C(=O)Oc1cc(OC(=O)N(C)C)cc(C(O)CNC(C)(C)C)c1 (centres undefined) [Bambuterol hydrochloride],neuronal differentiation score,ReNCell VM [1]; library: Prestwick,inactive: 0
same,dopaminergic neuron differentiation score,ReNCell VM [2]; library: Prestwick,inactive: 0
C[N+](C)(C)CCCCCCCCCC[N+](C)(C)C [Decamethonium bromide],neuronal differentiation score,ReNCell VM [1]; library: Prestwick,inactive: 0
same,dopaminergic neuron differentiation score,ReNCell VM [2]; library: Prestwick,inactive: 0
CN(C)Cc1c[nH]c2ccccc12 [Gramine],neuronal differentiation score,ReNCell VM [1]; library: Phytochemical,inactive: 0
same,dopaminergic neuron differentiation score,ReNCell VM [2]; library: Phytochemical,inactive: 0
CC(=O)CC1CCCCN1 (centres undefined),neuronal differentiation score,ReNCell VM [1]; library: Spectrum,inactive: 0
same,dopaminergic neuron differentiation score,ReNCell VM [2]; library: Spectrum,inactive: 0
O=c1oc2ccccc2c(O)c1C(c1ccccc1O)c1c(O)c2ccccc2oc1=O,neuronal differentiation score,ReNCell VM [1]; library: Natural,inactive: 0
same,dopaminergic neuron differentiation score,ReNCell VM [2]; library: Natural,inactive: 0

# 4 entries picked at random from those above, as already listed:
compound,measurement,setting,value
"C[C@]12CCC(=O)C[C@@H]1CC[C@@H]1[C@@H]2CC[C@]2(C)C(=O)CC[C@@H]12 [5alpha-ANDROSTAN-3,17-DIONE]",neuronal differentiation score,ReNCell VM [1]; library: Spectrum,inactive: 0
N#C[C@H](O[C@@H]1O[C@H](CO[C@@H]2O[C@H](CO)[C@@H](O)[C@H](O)[C@H]2O)[C@@H](O)[C@H](O)[C@H]1O)c1ccccc1,dopaminergic neuron differentiation score,ReNCell VM [2]; library: Spectrum,inactive: 0
CCCN(CCC)[C@@H]1CCc2c(OC)cccc2[C@@H]1C [(+)-UH 232 maleate],dopaminergic neuron differentiation score,ReNCell VM [2]; library: Tocriscreen,inactive: 0
CC(C(=O)OC1CC2CCC(C1)N2C)c1ccc(Br)cc1 (centres undefined) [PG-9 maleate],neuronal differentiation score,ReNCell VM [1]; library: Tocriscreen,inactive: 0
